Tests used:
HeLa cells = details: human
[1] = human plasma maximum concentration; ref [1]–[19]; cited from earlier work

SMILES	RDV CC50 when combination (HeLa cells)	RDV CC50 when in combination (HeLa cells)	Cmax [1]
O=C(O)c1cn(C2CC2)c2cc(N3CCNCC3)c(F)cc2c1=O [Ciprofloxacin]	> 2500 nM	> 2500 nM	4600 [8] ng/mL
CN1C(=O)CN=C(c2ccccc2)c2cc(Cl)ccc21 [Diazepam]	> 2500 nM	> 2500 nM	492 [9] ng/mL

Source: paper PMC9950143 (Scientific Reports, 2023)
